Publication PMC5596341
Read-outs that look alike come from different tables or passages of the source. These are yes or no findings as the source states them, for the method shown. For part of these data: Binding seen in cells or lysates may run through a third protein. Some entries that bind do so weakly or less than the wild type. Sequences can lack the tags named with a protein.

Protein sequences, listed by entry. Tags and fused reporters are not part of them.
UniProt Q9F4H4: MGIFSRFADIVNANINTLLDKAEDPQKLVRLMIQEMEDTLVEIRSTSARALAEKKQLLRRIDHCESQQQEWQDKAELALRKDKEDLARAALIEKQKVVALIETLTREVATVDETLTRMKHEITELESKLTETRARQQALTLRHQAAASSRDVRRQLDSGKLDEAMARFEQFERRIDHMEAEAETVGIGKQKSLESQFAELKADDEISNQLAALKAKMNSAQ

What was measured:
[1] = target: T1, PspB-3×FLAG (Y. enterocolitica); experiment: co-IP; anti-FLAG M2 antibody on protein A-Sepharose; membrane fraction of Y. enterocolitica solubilised with 1% DDM in 50 mM Tris-HCl pH 7.5, 300 mM NaCl, 5 mM EDTA; 4°C overnight; native conditions; immunoblot; strains with the pspA operon under tacp or its native promoter
T1 sequence: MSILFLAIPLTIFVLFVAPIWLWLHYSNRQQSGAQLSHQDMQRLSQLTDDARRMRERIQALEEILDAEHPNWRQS

[2] = target: T1, PspB-3×FLAG (Y. enterocolitica); experiment: as above; remark: listed apart in the source
[3] = target: T2, PilQ-His6 (Pseudomonas aeruginosa), P34750; experiment: SDS-PAGE of unheated samples with immunoblot (SDS-resistant multimers); unheated total, inner and outer membrane fractions of Y. enterocolitica; 6% polyacrylamide gel; anti-His6 immunoblot; details: remark: other sources report otherwise
T2 chain: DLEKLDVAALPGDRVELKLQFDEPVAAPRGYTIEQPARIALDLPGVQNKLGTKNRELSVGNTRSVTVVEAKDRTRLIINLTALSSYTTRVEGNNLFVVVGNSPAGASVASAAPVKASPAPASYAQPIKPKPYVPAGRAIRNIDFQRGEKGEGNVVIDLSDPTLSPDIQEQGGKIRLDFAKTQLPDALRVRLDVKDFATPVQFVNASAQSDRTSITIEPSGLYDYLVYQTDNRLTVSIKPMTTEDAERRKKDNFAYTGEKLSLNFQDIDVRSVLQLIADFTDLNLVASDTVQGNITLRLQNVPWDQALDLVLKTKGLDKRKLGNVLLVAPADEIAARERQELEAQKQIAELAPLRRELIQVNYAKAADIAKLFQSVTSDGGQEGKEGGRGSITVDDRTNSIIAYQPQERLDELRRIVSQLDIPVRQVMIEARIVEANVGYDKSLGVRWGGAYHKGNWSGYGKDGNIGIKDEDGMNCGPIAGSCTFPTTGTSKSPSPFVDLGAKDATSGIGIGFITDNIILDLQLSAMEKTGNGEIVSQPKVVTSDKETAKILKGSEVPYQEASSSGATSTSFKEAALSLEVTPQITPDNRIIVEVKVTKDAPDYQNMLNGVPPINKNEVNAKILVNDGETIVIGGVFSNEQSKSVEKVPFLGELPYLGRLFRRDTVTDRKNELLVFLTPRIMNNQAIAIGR

With PspA (from UniProt Q9F4H4 1-221) as the molecule, how does the binding [1] read?
Its binding is “binds”.

B1: PilQ-His6 (protein, UniProt P34750 25-714)
chain: T2 chain
For B1, which binding [2] is on record?
The binding was “no binding”.

B2: PilQ-His6, P34750 25-714 (protein)
chain: T2 chain
With B2 as the molecule, how does the binding [3] read?
Its binding is “no binding”.
